In article PMC5048756:
These are yes or no findings as the source states them, for the method shown. In cells and extracts the contact can be indirect. Some binding calls cover weakened binding; strength is not graded here. Tags and fused reporters may be left off the sequences shown.

Chains of the proteins cited; added tags and fusions are not shown.
UniProt P07356: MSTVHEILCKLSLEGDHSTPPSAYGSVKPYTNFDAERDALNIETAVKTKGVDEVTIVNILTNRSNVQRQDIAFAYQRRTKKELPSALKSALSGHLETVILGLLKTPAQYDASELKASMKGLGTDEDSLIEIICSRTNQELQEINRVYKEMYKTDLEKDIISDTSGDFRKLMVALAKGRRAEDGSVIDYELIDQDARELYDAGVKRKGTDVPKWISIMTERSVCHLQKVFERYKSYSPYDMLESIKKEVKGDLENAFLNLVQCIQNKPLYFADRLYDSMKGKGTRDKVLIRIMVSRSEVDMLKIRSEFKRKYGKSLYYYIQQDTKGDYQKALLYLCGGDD

T1: FLAG-tagged STAT1α (STAT1α^FLAG) (UniProt P42225)
T1 sequence: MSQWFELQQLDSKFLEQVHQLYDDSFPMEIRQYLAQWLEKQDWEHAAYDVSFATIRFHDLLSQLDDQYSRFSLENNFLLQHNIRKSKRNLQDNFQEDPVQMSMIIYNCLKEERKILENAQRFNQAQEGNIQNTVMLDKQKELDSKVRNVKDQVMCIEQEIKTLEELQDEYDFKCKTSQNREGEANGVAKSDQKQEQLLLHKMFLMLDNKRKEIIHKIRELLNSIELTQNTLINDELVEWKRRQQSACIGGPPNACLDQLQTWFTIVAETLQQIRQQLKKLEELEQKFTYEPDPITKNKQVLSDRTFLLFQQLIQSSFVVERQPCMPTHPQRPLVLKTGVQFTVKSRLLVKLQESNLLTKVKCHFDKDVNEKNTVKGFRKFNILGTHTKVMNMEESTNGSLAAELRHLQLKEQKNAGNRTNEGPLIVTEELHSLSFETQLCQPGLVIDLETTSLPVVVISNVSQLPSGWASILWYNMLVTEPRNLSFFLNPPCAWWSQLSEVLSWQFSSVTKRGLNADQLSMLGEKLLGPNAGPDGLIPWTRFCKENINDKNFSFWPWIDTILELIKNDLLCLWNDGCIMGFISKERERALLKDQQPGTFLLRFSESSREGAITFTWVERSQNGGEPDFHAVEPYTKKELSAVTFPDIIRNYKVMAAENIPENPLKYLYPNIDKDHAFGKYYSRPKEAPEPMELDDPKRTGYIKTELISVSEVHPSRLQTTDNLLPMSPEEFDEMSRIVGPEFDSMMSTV

B1: perforin (protein, UniProt P10820 21-554)
chain: PCYTATRSECKQKHKFVPGVWMAGEGMDVTTLRRSGSFPVNTQRFLRPDRTCTLCKNSLMRDATQRLPVAITHWRPHSSHCQRNVAAAKVHSTEGVAREAAANINNDWRVGLDVNPRPEANMRASVAGSHSKVANFAAEKTYQDQYNFNSDTVECRMYSFRLVQKPPLHLDFKKALRALPRNFNSSTEHAYHRLISSYGTHFITAVDLGGRISVLTALRTCQLTLNGLTADEVGDCLNVEAQVSIGAQASVSSEYKACEEKKKQHKMATSFHQTYRERHVEVLGGPLDSTHDLLFGNQATPEQFSTWTASLPSNPGLVDYSLEPLHTLLEEQNPKREALRQAISHYIMSRARWQNCSRPCRSGQHKSSHDSCQCECQDSKVTNQDCCPRQRGLAHLVVSNFRAEHLWGDYTTATDAYLKVFFGGQEFRTGVVWNNNNPRWTDKMDFENVLLSTGGPLRVQVWDADYGWDDDLLGSCDRSPHSGFHEVTCELNHGRVKFSYHAKCLPHLTGGTCLEYAPQGLLGDPPGNRSGAVW
B2: protein phosphatase 1B (PPM1B) (enzyme, UniProt P36993 1-390)
chain: MGAFLDKPKTEKHNAHGAGNGLRYGLSSMQGWRVEMEDAHTAVVGIPHGLDNWSFFAVYDGHAGSRVANYCSTHLLEHITTNEDFRAADKSGSALEPSVESVKTGIRTGFLKIDEYMRNFSDLRNGMDRSGSTAVGVMVSPTHMYFINCGDSRAVLCRNGQVCFSTQDHKPCNPVEKERIQNAGGSVMIQRVNGSLAVSRALGDYDYKCVDGKGPTEQLVSPEPEVYEIVRAEEDEFVVLACDGIWDVMSNEELCEFVKSRLEVSDDLENVCNWVVDTCLHKGSRDNMSVVLVCFSNAPKVSEEAVKRDSELDKHLESRVEEIMQKSGEEGMPDLAHVMRILSAENIPNLPPGGGLAGKRHVIEAVYSRLNPHKDNDGGAGDLEDSLVAL

Molecular target: T1, FLAG-tagged STAT1α (STAT1α^FLAG)
Experiment: co-IP; STAT1α^FLAG precipitated with ANTI-FLAG M2 Affinity Gel from lysates of Stat1^ind NK cells, unstimulated or co-incubated for 30 min with Jurkat cells; IP lysis buffer 50 mM HEPES pH 7.5, 0.1% Tween-20, 150 mM NaCl, 1 mM EDTA; Western blot of the eluate

Row | binding | Molecule
1 | binds | annexin A2 (from UniProt P07356 1-339)
2 | binds | B1
3 | binds | B2
